Laboratory results from publication PMC4066782, “The telomerase inhibitor Gno1p/PINX1 activates the helicase Prp43p during ribosome biogenesis” (Nucleic Acids Research, 2014).
These are yes or no findings as the source states them, for the method shown. Binding seen in cells or lysates may run through a third protein. Some binding calls cover weakened binding; strength is not graded here. Sequences can lack the tags named with a protein.

How the values were obtained:
Experiment in all cases: co-IP; IgG sepharose beads precipitate the TAP- or ZZ-tagged protein from total yeast extracts; HA-tagged protein detected by western with anti-HA antibodies
[1] = biological target: T1, Pfa1p-TAP (S. cerevisiae) (UniProt P53866)
T1 sequence: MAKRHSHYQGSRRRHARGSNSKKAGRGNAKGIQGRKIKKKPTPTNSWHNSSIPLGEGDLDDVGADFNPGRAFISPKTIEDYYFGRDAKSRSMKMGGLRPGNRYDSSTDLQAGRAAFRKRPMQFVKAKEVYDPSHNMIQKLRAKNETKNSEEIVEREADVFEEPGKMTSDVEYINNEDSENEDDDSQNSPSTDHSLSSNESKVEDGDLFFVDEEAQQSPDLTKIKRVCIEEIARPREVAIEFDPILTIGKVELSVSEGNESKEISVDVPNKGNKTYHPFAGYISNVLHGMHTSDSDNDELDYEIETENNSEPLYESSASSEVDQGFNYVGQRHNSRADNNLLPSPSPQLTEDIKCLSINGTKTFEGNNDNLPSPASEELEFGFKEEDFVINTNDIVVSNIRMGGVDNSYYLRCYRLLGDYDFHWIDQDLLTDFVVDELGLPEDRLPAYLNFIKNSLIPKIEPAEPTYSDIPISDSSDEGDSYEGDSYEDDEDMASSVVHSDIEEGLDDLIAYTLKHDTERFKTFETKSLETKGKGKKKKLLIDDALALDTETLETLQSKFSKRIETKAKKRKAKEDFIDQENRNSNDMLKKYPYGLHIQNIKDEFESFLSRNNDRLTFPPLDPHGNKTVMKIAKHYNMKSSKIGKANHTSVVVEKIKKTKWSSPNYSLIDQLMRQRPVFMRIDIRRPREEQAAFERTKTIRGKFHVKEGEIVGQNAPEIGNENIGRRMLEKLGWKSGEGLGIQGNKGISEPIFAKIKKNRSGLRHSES

[2] = biological target: T2, Pwp2p-TAP (S. cerevisiae) (UniProt P25635)
T2 sequence: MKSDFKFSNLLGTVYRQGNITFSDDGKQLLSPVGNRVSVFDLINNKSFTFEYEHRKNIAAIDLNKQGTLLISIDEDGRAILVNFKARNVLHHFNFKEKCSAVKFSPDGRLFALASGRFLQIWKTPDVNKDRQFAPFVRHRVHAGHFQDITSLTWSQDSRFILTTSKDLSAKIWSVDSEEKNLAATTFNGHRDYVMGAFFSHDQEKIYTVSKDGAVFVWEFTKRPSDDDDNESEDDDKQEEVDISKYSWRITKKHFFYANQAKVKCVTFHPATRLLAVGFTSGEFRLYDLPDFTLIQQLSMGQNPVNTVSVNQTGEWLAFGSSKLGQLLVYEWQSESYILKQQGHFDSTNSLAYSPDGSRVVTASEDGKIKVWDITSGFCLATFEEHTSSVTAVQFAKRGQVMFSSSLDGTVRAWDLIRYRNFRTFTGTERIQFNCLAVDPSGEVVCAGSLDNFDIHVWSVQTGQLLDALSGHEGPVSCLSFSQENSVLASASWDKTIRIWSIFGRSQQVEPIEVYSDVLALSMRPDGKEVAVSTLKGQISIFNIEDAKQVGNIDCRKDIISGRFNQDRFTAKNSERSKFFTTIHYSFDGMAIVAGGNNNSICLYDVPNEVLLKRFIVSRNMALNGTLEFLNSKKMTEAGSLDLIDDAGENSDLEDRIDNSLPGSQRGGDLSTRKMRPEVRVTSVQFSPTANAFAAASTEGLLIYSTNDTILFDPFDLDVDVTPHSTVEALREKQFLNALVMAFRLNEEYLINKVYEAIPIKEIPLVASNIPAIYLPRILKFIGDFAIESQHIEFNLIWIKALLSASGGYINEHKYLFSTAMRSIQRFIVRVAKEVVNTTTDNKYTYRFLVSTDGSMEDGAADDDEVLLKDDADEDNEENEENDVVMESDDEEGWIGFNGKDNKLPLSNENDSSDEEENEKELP

[3] = biological target: T3, Utp15p-TAP (S. cerevisiae) (UniProt Q04305)
T3 sequence: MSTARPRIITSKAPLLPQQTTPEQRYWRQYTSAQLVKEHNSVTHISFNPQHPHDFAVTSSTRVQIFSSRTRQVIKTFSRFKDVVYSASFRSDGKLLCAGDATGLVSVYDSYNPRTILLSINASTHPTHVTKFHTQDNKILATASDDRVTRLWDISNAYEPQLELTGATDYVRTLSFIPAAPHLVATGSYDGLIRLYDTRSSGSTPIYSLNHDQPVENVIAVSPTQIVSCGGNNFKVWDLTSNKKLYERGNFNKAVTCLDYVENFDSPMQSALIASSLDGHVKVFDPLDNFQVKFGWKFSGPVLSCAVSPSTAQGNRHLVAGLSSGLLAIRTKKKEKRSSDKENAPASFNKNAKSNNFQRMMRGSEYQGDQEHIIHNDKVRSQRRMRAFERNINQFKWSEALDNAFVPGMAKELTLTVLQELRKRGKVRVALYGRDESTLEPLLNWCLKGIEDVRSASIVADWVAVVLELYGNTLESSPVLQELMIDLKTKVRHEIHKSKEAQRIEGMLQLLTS

[4] = biological target: T4, Utp6p-TAP (S. cerevisiae) (UniProt Q02354)
T4 sequence: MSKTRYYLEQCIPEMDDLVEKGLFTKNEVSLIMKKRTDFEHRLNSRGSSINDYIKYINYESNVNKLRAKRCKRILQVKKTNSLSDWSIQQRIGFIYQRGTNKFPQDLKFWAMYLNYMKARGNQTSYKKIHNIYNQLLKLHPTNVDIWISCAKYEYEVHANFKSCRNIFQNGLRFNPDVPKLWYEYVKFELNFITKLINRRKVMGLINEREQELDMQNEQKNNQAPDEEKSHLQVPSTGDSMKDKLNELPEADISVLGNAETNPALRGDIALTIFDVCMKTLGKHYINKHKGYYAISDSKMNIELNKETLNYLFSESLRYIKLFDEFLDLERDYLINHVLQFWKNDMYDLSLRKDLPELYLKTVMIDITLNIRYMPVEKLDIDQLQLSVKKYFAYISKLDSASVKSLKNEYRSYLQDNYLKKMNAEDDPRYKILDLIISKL

B1: Gno1p-HA (GNO1-HA-TRP1 cassette, made with plasmid pFA6a-3HA-TRP1) (protein, UniProt P53335 1-271)
chain: MGLAATRTKQRFGLDPRNTAWSNDTSRFGHQFLEKFGWKPGMGLGLSPMNSNTSHIKVSIKDDNVGLGAKLKRKDKKDEFDNGECAGLDVFQRILGRLNGKESKISEELDTQRKQKIIDGKWGIHFVKGEVLASTWDPKTHKLRNYSNAKKRKREGDDSEDEDDDDKEDKDSDKKKHKKHKKHKKDKKKDKKDKKEHKKHKKEEKRLKKEKRAEKTKETKKTSKLKSSESASNIPDAVNTRLSVRSKWIKQKRAALMDSKALNEIFMITND
binding [1]: no binding | binding [2]: binds | binding [3]: binds | binding [4]: binds
